Results on one substance are retold here after paper doi:10.1101/2024.08.22.609157.

Amino acid sequences for entries named in this document (tags omitted).
UniProt P53396: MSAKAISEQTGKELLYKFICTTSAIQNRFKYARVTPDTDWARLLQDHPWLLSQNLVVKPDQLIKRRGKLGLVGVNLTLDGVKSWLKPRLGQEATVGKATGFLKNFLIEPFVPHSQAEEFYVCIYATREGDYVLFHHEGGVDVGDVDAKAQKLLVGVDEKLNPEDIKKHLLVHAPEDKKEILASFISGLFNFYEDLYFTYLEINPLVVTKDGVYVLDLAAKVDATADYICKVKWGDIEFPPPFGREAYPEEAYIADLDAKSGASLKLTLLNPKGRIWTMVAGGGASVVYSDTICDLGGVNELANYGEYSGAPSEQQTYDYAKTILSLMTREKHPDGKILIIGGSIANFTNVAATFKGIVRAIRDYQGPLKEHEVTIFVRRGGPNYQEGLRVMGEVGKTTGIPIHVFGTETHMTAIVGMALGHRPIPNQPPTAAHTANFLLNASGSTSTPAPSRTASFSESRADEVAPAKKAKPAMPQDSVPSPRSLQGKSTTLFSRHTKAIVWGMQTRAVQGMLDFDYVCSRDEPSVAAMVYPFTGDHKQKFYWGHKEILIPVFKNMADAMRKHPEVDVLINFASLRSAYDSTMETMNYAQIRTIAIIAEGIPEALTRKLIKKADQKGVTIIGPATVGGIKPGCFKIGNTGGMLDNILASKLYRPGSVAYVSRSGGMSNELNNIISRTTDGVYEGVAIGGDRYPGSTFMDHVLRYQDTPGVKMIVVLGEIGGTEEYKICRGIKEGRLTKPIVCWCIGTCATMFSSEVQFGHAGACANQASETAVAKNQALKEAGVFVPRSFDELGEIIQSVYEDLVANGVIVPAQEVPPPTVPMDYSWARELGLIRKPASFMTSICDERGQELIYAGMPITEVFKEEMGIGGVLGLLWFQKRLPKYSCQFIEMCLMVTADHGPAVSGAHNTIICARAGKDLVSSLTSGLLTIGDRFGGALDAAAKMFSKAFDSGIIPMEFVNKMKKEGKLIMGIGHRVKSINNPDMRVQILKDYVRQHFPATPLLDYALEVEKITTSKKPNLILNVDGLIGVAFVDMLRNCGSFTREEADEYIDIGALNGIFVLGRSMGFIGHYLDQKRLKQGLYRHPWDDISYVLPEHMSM

Results are given in words; binding and its absence hold for the method and conditions named. Binding seen in cells or lysates may run through a third protein. These calls come from enrichment with a bait or labelling near it, and not all partners need be listed.

This test deals with MTHFR with threonine 34 changed to alanine, C-terminally Flag-tagged (MTHFR_(T34A)) (human) (UniProt P42898). As to the kind of experiment: affinity purification with mass spectrometry.

Regarding “ACLY (from UniProt P53396 1-1101) (enzyme)”, the binding entry is “binds”.
